In US20120251571, “RNASE L-MEDIATED CLEAVAGE PRODUCTS AND USES […]” (The Cleveland Clinic Foundation, published 2012):
For at least one entry, the source does not settle the construct or the ends of the probe. Tags and fusion partners may be left off the protein sequences shown.

Biological target: T1, Flag-RIG-I (Homo sapiens) (UniProt O95786)
T1 sequence (looked up, limits assumed): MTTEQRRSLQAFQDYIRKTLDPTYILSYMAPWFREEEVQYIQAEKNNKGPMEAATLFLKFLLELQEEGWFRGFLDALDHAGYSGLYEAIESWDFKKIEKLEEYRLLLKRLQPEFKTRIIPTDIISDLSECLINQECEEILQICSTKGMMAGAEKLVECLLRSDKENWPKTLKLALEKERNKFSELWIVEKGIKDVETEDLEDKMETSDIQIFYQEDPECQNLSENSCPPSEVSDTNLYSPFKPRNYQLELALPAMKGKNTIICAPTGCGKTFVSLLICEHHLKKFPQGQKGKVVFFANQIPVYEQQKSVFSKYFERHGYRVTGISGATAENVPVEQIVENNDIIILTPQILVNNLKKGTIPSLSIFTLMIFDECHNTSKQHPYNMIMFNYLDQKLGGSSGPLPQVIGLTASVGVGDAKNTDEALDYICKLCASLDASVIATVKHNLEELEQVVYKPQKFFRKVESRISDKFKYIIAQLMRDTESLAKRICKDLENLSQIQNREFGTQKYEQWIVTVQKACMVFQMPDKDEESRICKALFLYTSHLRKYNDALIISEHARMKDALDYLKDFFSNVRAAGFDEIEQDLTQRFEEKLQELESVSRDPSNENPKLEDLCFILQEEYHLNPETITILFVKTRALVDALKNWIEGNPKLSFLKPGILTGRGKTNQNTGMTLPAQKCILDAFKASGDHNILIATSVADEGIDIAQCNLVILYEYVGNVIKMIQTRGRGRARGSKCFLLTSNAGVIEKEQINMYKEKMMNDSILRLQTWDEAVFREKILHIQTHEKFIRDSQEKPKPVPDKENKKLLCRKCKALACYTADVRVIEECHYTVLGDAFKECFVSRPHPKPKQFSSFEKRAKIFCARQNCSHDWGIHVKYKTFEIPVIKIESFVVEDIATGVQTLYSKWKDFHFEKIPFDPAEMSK
Experiment: pull-down
Conditions: 3'-phosphate or 5'-triphosphate; one clone; purified recombinant protein; protein details: FLAG, from 293T cells

“UGGGUGUGCGCGCGACGAGGAAGACUUCCGAGCGGUCGCAACCUCGAGGUAGACGUCAGCCUAUC [svRNA4]”: binds.
